Reference: paper PMC8776094, “Reactive Oxygen Species Production Is Responsible for Antineoplastic Activity of Osmium, Ruthenium, Iridium and Rhodium Half-Sandwich Type Complexes with Bidentate Glycosyl Heterocyclic Ligands in Various Cancer Cell Models” (International Journal of Molecular Sciences, 2022)
Like-named read-outs stand apart in the source and are kept apart here.

Assays:
[1] = system: Capan2, a pancreatic adenocarcinoma cell line; set-up: method as in PMID 34638791; conditions: SRB assay, 48 h; Hill coefficient; data previously published; cited from earlier work
[2] = system: ID8 ovarian cancer cell line; set-up: method as in PMID 34638791; conditions: SRB assay, 48 h; Hill coefficient; data previously published; cited from earlier work
[3] = system: A2780 ovarian cancer cells; test: SRB assay, 48 h, cytostasis, A2780; assay type: cell-based; conditions: Hill coefficient
Experimental: (§1) The compounds were tested between 0.001694 and 33.3333 µM, using a 4-hour-long MTT test to assess rapid toxicity and a 48-hour-long SRB assay to assess the long-term effects of the inhibition of proliferation (cytostasis). The MTT assay assesses the activity of mitochondrial complex I and detects rapid, direct toxicity, as well as indicating apoptosis and necrosis. The SRB assay measures the total protein content that is proportional to cell numbers; therefore, the assay can detect changes in cell numbers and can thus be used as a readout for cell proliferation. The SRB assay was performed after 48 h of treatment (with the exception of L428 cells, which were tested for 96 h due to their slower proliferation rate). In this setting, the SRB assay informs us of long-term changes to cell proliferation. We assessed the maximal inhibition within that concentration range, and descriptive statistics were performed. We performed a one-way ANOVA, followed by the Kruskal–Wallis test, regardless of the normal or non-normal distribution of the data. Due to the large number of significance values, the results of the significance calculations are provided in an Excel spreadsheet at https://figshare.com/s/28d14597d5041f08eb08 (accessed on 6 January 2022), among other primary data of the study. Where possible, nonlinear regression was performed on the curves to determine the IC50 values ((inhibitor) vs. response—variable slope (four parameters) method with Graphpad v8.0.1). […] In Table 5, we added the IC50 values that we determined for a set of 4 active ruthenium half-sandwich complexes we identified previously, to be used in subsequent structure-activity relationship (SAR) analyses.
A2780 cells were cultured in RMPI 1640 medium, supplemented with 10% fetal calf serum, 2 mM glutamine, and 1% penicillin-streptomycin.
(§2) The assay was performed similarly to the method used in [73]. Cells were seeded in 96-well plates the day before the assay. Cells were treated with the compounds for 48 h, with the exception of L428, where 96 h of treatment was applied. Cells were fixed with 10% trichloroacetic acid (TCA). Fixed cells were washed in distilled water 3 times, followed by staining with SRB (0.4 m/V% dissolved in 1% acetic acid) for 10 min. The stained cells were washed in 1% acetic acid 5 times; the acetic acid was removed, and the cells were left to dry. Protein-bound SRB was released by adding 100 µL 10 mM Tris base. Plates were measured in a plate photometer (Thermo Scientific Multiscan GO spectrophotometer, Waltham, MA, USA) at 540 nm. On each plate, wells were designed to contain untreated cells. In calculations, the readings for these wells were considered as 1 and all readings were expressed relative to these values.
(§3) Statistical analysis was performed using the 8.0.1 version of Graphpad Prism. Values were tested for normal distribution, using the d’Agostino and Pearson normality test. When necessary, values were log-normalized or were normalized using the Box-Cox normalization method or using a two-step transformation, as indicated in the figure captions. Nonlinear regression was performed using the built-in “[Inhibitor] vs. Response—Variable slope (four parameters), least-square fit” utility of Graphpad, yielding the IC50 and Hill slope values.

[4] = system: ID8 ovarian cancer cell line; test: SRB assay, 48 h, cytostasis, ID8; assay type: cell-based; conditions: Hill coefficient
Experimental: as §1
ID8 cells were cultured in a high-glucose DMEM (4.5 g/L glucose) medium, supplemented with 4% fetal calf serum, 2 mM glutamine, 1% penicillin-streptomycin, and 1% ITS supplement (I3146).
as §2, §3

[5] = system: Capan2, a pancreatic adenocarcinoma cell line; test: SRB assay, 48 h, cytostasis, Capan2; assay type: cell-based; conditions: Hill coefficient
From the text: We turned next to assessing whether the cytostatic activity of Os-3, Os-4, Os-5, Os-6 and Ir-6 complexes is specific for ovarian cancer cell lines or if they may be active on other cell lines. To that end, we tested the complexes on another carcinoma cell line (Capan2, a pancreatic adenocarcinoma cell line), on a sarcoma cell line (Saos, an osteosarcoma cell line) and on a lymphoma cell line (L428, a Hodgkin’s lymphoma cell line).
Capan2 cells were maintained in MEM, 10% fetal bovine serum, 1% penicillin/streptomycin, and 2 mM glutamine.
as §2, §3
Here, 1.5 × 10^3 Capan2, 3 × 10^3 Saos cells and 10^4 L428 cells were plated onto 96-well plates. Capan2 and Saos cells were treated with the compounds in the concentrations indicated for 48 h for an SRB assay. L428 cells were treated with the compounds in the concentrations indicated for 96 h, then cells were counted using conventional microscopy and a Burker chamber. Data are represented as average ± SD, from three biological replicates; individual assays were performed in duplicate. Values were normalized for vehicle-treated cells; the absorbance for vehicle-treated cells is equal to 1. A one-way ANOVA, followed by a Kruskal–Wallis test, was performed individually for each compound. The results of the statistical analysis are presented in an Excel spreadsheet at https://figshare.com/s/28d14597d5041f08eb08 (accessed on 6 January 2022). Nonlinear regression was performed on the data.

Compound	Capan2 Hill [1] [µM]	ID8 Hill [2] [µM]	A2780 Hill [3] [µM]	ID8 Hill [4] [µM]	Capan2 Hill [5] [µM]
Cc1ccc(C(C)C)cc1.F[P-](F)(F)(F)(F)F.O=C(OCC1OC(c2nnc(-c3ccccn3)o2)C(OC(=O)c2ccccc2)C(OC(=O)c2ccccc2)C1OC(=O)c1ccccc1)c1ccccc1.[Cl][Ru+] (mixture of isomers) [Ru-4]	1.66	3.31			
Cc1ccc(C(C)C)cc1.F[P-](F)(F)(F)(F)F.O=C(OCC1OC(c2nnc(-c3ccccn3)o2)C(OC(=O)c2ccccc2)C(OC(=O)c2ccccc2)C1OC(=O)c1ccccc1)c1ccccc1.[Cl][Ru+] (mixture of isomers) [Ru-3]	1.81	3.04			
Cc1c(C)c(C)[c-](C)c1C.F[P-](F)(F)(F)(F)F.O=C(OCC1OC(n2cc(-c3ccccn3)nn2)C(OC(=O)c2ccccc2)C(OC(=O)c2ccccc2)C1OC(=O)c1ccccc1)c1ccccc1.[Cl][Rh+2] (mixture of isomers) [Rh-6]			0.71		
Cc1ccc(C(C)C)cc1.F[P-](F)(F)(F)(F)F.O=C(OCC1OC(n2cc(-c3ccccn3)nn2)C(OC(=O)c2ccccc2)C(OC(=O)c2ccccc2)C1OC(=O)c1ccccc1)c1ccccc1.[Cl][Os+] (mixture of isomers) [Os-6]			3.01	3.14	1.33
Cc1ccc(C(C)C)cc1.F[P-](F)(F)(F)(F)F.O=C(OC1COC(c2nnc(-c3ccccn3)o2)C(OC(=O)c2ccccc2)C1OC(=O)c1ccccc1)c1ccccc1.[Cl][Os+] (mixture of isomers) [Os-5]			1.85	2.90	2.26
Cc1ccc(C(C)C)cc1.F[P-](F)(F)(F)(F)F.O=C(OCC1OC(c2nnc(-c3ccccn3)o2)C(OC(=O)c2ccccc2)C(OC(=O)c2ccccc2)C1OC(=O)c1ccccc1)c1ccccc1.[Cl][Os+] (mixture of isomers) [Os-4]			2.52	3.69	1.85
Cc1ccc(C(C)C)cc1.F[P-](F)(F)(F)(F)F.O=C(OC1COC(c2nnc(-c3ccccn3)o2)C(OC(=O)c2ccccc2)C1OC(=O)c1ccccc1)c1ccccc1.[Cl][Ru+] (mixture of isomers) [Ru-5]	1.66	3.59			
Cc1ccc(C(C)C)cc1.F[P-](F)(F)(F)(F)F.O=C(OCC1OC(c2nnc(-c3ccccn3)o2)C(OC(=O)c2ccccc2)C(OC(=O)c2ccccc2)C1OC(=O)c1ccccc1)c1ccccc1.[Cl][Os+] (mixture of isomers) [Os-3]			1.82	2.39	2.30
Cc1c(C)c(C)[c-](C)c1C.F[P-](F)(F)(F)(F)F.O=C(OCC1OC(n2cc(-c3ccccn3)nn2)C(OC(=O)c2ccccc2)C(OC(=O)c2ccccc2)C1OC(=O)c1ccccc1)c1ccccc1.[Cl][Ir+2] (mixture of isomers) [Ir-6]			2.08	2.46	1.58
Cc1ccc(C(C)C)cc1.F[P-](F)(F)(F)(F)F.O=C(OCC1OC(n2cc(-c3ccccn3)nn2)C(OC(=O)c2ccccc2)C(OC(=O)c2ccccc2)C1OC(=O)c1ccccc1)c1ccccc1.[Cl][Ru+] (mixture of isomers) [Ru-6]	2.43	2.5			
